Reference: PubChem BioAssay AID504804 (Drosophila RNAi Screening Center, 2011)
Aim: 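Fly genes whose loss lessens doxorubicin-driven cell death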 (primary screen). Cells: Drosophila Kc cells. Reagent: long dsRNA against Drosophila genes, 0.5 µg dsRNA per well. Duration: 96 h (48 h knock-down, then 48 h drug). Conditions: doxorubicin 5 µg/ml for 48 h, added 48 h after dsRNA. Detection: 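Viability measured as cellular ATP by luminescence after 48 h knock-down then 48 h doxorubicin at 5 µg/ml; unnormalised plate counts for each replicate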. Direction: raw ATP luminescence: higher = more viable cells, protection from doxorubicin. Hit rule: 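z-score of 2 or more over plate mean in both duplicates, retained only when retests and separate dsRNAs confirm the protection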.
In all, the deposit lists about 19,000 reagents; shown is a random part of those with a known target gene and a result. In the full data, 47 (0.25%) got an active call. 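Signals are raw, not normalised; exact z-scores behind calls not deposited; actives needed confirmation, so some wells reaching 2 SD are inactive.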 Unmarked entries are inactive. Names joined by + are all predicted targets of the reagent.

| gene knocked down | amplicon | raw ATP luminescence, replicate 1 | raw ATP luminescence, replicate 2 |
| --- | --- | --- | --- |
| CG4744 | DRSC06887 | 64557 | 76110 |
| Gart | DRSC03481 | 31590 | 37027 |
| wun2 | DRSC07566 | 48953 | 84887 |
| S-Lap3 | DRSC10956 | 33007 | 45533 |
| l(2)37Cd | DRSC02069 | 83063 | 62390 |
| ND-75 | DRSC18686 | 29960 | 31450 |
| CG12499 | DRSC14521 | 53350 | 64340 |
| CG17258 | DRSC00495 | 19560 | 19503 |
| CG31380 | DRSC15688 | 64050 | 61640 |
| Fnta | DRSC00557 | 1.11e5 | 87880 |
| nej | DRSC18006 | 96030 | 85890 |
| CG9360 | DRSC20180 | 3.23e5 | 2.78e5 |
| scpr-B | DRSC15200 | 47750 | 25797 |
| CG3618 | DRSC11746 | 19387 | 14470 |
| CG31957 | DRSC00207 | 2.82e5 | 3.37e5 |
| CG30375 | DRSC06834 | 56917 | 88683 |
| Pk34A | DRSC03398 | 70733 | 90497 |
| CG10591 | DRSC09748 | 44303 | 41947 |
| Cpr67B | DRSC10373 | 39677 | 40423 |
| CG14693 | DRSC14916 | 63687 | 69913 |
| CG9257 | DRSC03173 | 72937 | 69783 |
| CG10280 | DRSC12133 | 72863 | 71750 |
| CG5758 | DRSC02889 | 65913 | 69087 |
| CG5758 | DRSC02890 | 69853 | 88663 |
| bug | DRSC07137 | 50833 | 58480 |
| Mnn1 | DRSC03368 | 19823 | 25143 |
| CG31921 | DRSC00013 | 2.61e5 | 2.52e5 |
| dod | DRSC20577 | 1.92e5 | 1.99e5 |
| CG9875 | DRSC04585 | 49343 | 49803 |
| CG33255 (retired record) + hpRNA:CR32205 | DRSC09610 | 65357 | 58510 |
| CG33255 (retired record) + hpRNA:CR32205 | DRSC09611 | 67730 | 60250 |
| Tango9 | DRSC14173 | 73303 | 32973 |
| Sting | DRSC06615 | 39790 | 74433 |
| CG15547 | DRSC15085 | 52670 | 35120 |
| CG14052 | DRSC17907 | 59530 | 69560 |
| CG14052 | DRSC18192 | 56740 | 66660 |
| prg | DRSC03324 | 50353 | 76350 |
| mtTFB1 + Ccdc56 | DRSC10809 | 49293 | 31957 |
| CG5447 | DRSC15801 | 66640 | 56000 |
| Eig71Eb | DRSC11149 | 75413 | 62627 |
| ect | DRSC10675 | 75907 | 57947 |
| ect | DRSC11343 | 56427 | 45623 |
| beta-PheRS | DRSC15859 | 47777 | 43993 |
| RNaseX25 | DRSC11259 | 39387 | 37497 |
| CG11113 | DRSC06039 | 46790 | 76423 |
| Gr58a | DRSC03910 | 61380 | 63837 |
| CG14744 | DRSC06480 | 43857 | 93203 |
| CG3529 | DRSC10369 | 34583 | 39053 |
| CG17217 | DRSC02592 | 81303 | 70280 |
| CG13996 | DRSC02328 | 33243 | 22620 |
| CG33230 | DRSC08602 | 63213 | 67787 |
| CG9997 | DRSC16591 | 56200 | 36870 |
| RpS26 | DRSC03420 | 27303 | 38063 |
| AANATL3 | DRSC02089 | 57850 | 61247 |
| mRpL35 | DRSC14586 | 71990 | 74300 |
| SmydA-9 | DRSC17814 | 3.03e5 | 3.39e5 |
| CG12883 | DRSC14570 | 39770 | 34750 |
| Oga | DRSC15901 | 40380 | 37977 |
| NimC4 | DRSC01945 | 66820 | 80043 |
| Atxn7 | DRSC00726 | 92307 | 64567 |
| Start1 | DRSC04384 | 83647 | 64660 |
| CG4455 | DRSC01983 | 88023 | 67517 |
| Ank2 | DRSC08894 | 1.51e5 | 1.67e5 |
| Ank2 | DRSC09666 | 1.01e5 | 84667 |
| Ank2 | DRSC10338 | 95053 | 98580 |
| Ank2 | DRSC11278 | 98743 | 93260 |
| CG9485 | DRSC04557 | 72113 | 91077 |
| CG8516 | DRSC16437 | 52660 | 51670 |
| tio | DRSC03739 | 40933 | 46633 |
| Pif1A + Pif1B | DRSC14142 | 55127 | 53993 |
| Pif1A + Pif1B | DRSC14380 | 48860 | 24663 |
| Pif1A + Pif1B | DRSC14381 | 43553 | 66063 |
| t-cup | DRSC01254 | 2.41e5 | 2.43e5 |
| Br140 | DRSC06755 | 58420 | 47620 |
| CG15093 | DRSC06522 | 58837 | 68330 |
| Or46a | DRSC07489 | 32273 | 68860 |
| Or46a | DRSC07490 | 28667 | 65693 |
| CG9705 | DRSC11094 | 21400 | 19783 |
| Ptx1 | DRSC16804 | 61890 | 47940 |
| CG13295 | DRSC09969 | 86457 | 95670 |
| CG12171 | DRSC12200 | 71577 | 60210 |
| vanin-like | DRSC17440 | 1.64e5 | 1.78e5 |
| CG11658 | DRSC09852 | 83137 | 1.13e5 |
| CG7017 | DRSC10762 | 55600 | 57063 |
| Mst84Dc | DRSC12599 | 67587 | 46297 |
| CG8664 | DRSC20116 | 2.63e5 | 2.83e5 |
| CG32694 | DRSC17844 | 3.37e5 | 3.46e5 |
| CG32694 | DRSC17855 | 3.82e5 | 3.39e5 |
| FarO | DRSC18475 | 57470 | 48300 |
| sing | DRSC19530 | 3.55e5 | 2.77e5 |
| Ir60e | DRSC04227 | 46403 | 61813 |
| Mst84Db | DRSC12542 | 70770 | 47600 |
| Mst84Db | DRSC12598 | 61143 | 49750 |
| CG12836 | DRSC06182 | 43003 | 66400 |
| Ccs | DRSC06692 | 45683 | 62473 |
| Cib2 | DRSC04535 | 61467 | 54967 |
| wcd | DRSC07051 | 52263 | 53387 |
| Rel | DRSC16819 | 44077 | 42380 |
| CG5863 | DRSC15898 | 99910 | 70550 |
| CG8757 | DRSC11039 | 59473 | 59650 |
| Rpn8 | DRSC04624 | 48077 | 46187 |
| CG13562 | DRSC04200 | 82567 | 61510 |
| eIF3h | DRSC01995 | 90473 | 48613 |
| CG12539 | DRSC19470 | 2.88e5 | 2.91e5 |
| Pdk | DRSC07504 | 69327 | 71507 |
| CG9951 | DRSC11105 | 26610 | 24950 |
| Pkcdelta | DRSC19356 | 3.36e5 | 2.74e5 |
| Pkcdelta | DRSC19399 | 3.26e5 | 3.10e5 |

Reprinted from the entries so far, 17 entries:
| gene knocked down | amplicon | raw ATP luminescence, replicate 1 | raw ATP luminescence, replicate 2 |
| --- | --- | --- | --- |
| RpS26 | DRSC03420 | 27303 | 38063 |
| AANATL3 | DRSC02089 | 57850 | 61247 |
| mRpL35 | DRSC14586 | 71990 | 74300 |
| SmydA-9 | DRSC17814 | 3.03e5 | 3.39e5 |
| CG12883 | DRSC14570 | 39770 | 34750 |
| Oga | DRSC15901 | 40380 | 37977 |
| NimC4 | DRSC01945 | 66820 | 80043 |
| Atxn7 | DRSC00726 | 92307 | 64567 |
| Start1 | DRSC04384 | 83647 | 64660 |
| CG4455 | DRSC01983 | 88023 | 67517 |
| Ank2 | DRSC08894 | 1.51e5 | 1.67e5 |
| Ank2 | DRSC09666 | 1.01e5 | 84667 |
| Ank2 | DRSC10338 | 95053 | 98580 |
| Ank2 | DRSC11278 | 98743 | 93260 |
| CG9485 | DRSC04557 | 72113 | 91077 |
| CG8516 | DRSC16437 | 52660 | 51670 |
| tio | DRSC03739 | 40933 | 46633 |
